Series [1] in a line: In vitro microdialysis recovery. Particulars: in vitro microdialysis system; independent of concentration up to 25 μg ml^−1.
The nature of series [2]: In vivo probe recovery by retrodialysis. Also on record: species or system human.

For `C[C@H]1O[C@@H](n2cc(F)c(N)nc2=O)[C@H](O)[C@@H]1O` [DFCR, 5′-deoxy-5-fluorocytidine], the “in vitro microdialysis recovery” value in series [1] is given as 60.7%.

As to `C[C@H]1O[C@@H](n2cc(F)c(=O)[nH]c2=O)[C@H](O)[C@@H]1O` [DFUR, 5′-deoxy-5-fluorouridine], in series [1], the “in vitro microdialysis recovery” value is on record as 61.8%.

Regarding `CCCCCOC(=O)Nc1nc(=O)n([C@@H]2O[C@H](C)[C@@H](O)[C@H]2O)cc1F` [Capecitabine], the “in vitro microdialysis recovery” value in series [1] is 51.8%. Also, the “in vivo recovery (range)” value in series [2] (subcutaneous connective tissue) is given as 13–65%; in series [2] (tumour), 11–58%.

For `O=c1[nH]cc(F)c(=O)[nH]1` [FU, 5-fluorouracil], the “in vitro microdialysis recovery” value in series [1] was found to be 72.9%. The “in vivo recovery (range)” value in series [2] (subcutaneous connective tissue) is on record as 12–69%; in series [2] (tumour), 13–75%.

Source of the values: PMC2376334, “Penetration of capecitabine and its metabolites into malignant and healthy tissues of patients with advanced breast cancer” (British Journal of Cancer, 2003).
